Source: the supplement of paper PMC10849652
Some of the results follow.

Amino acid sequences for entries named in this document (tags omitted). A change or cut given only in a name is not applied to a line headed by its entry.
UniProt Q9Y2Z0: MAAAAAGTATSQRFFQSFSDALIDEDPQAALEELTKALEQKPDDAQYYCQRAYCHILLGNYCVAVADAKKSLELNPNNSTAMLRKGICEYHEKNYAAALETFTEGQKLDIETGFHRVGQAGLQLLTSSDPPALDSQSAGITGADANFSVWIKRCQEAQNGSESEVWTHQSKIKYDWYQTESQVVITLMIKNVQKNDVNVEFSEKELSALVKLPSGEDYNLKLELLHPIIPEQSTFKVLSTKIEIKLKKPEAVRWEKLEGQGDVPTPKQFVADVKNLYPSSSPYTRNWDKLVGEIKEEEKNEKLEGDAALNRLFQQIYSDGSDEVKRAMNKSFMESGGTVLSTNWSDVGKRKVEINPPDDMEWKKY
UniProt Q9NRL3: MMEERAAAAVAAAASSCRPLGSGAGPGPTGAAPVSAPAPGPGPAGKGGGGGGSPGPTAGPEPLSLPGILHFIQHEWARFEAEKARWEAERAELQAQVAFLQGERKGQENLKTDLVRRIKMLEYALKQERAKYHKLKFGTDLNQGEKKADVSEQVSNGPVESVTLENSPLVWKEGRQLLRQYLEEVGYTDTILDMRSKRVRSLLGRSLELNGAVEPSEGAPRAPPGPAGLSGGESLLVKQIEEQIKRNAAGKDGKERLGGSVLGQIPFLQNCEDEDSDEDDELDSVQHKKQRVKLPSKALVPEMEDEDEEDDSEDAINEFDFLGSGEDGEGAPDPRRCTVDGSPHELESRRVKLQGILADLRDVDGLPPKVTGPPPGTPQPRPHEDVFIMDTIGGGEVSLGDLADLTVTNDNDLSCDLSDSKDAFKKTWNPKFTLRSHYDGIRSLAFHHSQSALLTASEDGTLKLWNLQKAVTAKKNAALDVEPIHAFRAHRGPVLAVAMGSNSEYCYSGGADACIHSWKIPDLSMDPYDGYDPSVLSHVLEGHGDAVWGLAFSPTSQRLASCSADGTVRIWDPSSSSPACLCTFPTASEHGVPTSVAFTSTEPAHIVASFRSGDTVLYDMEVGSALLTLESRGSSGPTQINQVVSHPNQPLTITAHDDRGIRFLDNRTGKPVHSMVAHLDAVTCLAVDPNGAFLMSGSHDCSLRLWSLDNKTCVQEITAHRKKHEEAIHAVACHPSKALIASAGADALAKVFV
UniProt Q9H2K8: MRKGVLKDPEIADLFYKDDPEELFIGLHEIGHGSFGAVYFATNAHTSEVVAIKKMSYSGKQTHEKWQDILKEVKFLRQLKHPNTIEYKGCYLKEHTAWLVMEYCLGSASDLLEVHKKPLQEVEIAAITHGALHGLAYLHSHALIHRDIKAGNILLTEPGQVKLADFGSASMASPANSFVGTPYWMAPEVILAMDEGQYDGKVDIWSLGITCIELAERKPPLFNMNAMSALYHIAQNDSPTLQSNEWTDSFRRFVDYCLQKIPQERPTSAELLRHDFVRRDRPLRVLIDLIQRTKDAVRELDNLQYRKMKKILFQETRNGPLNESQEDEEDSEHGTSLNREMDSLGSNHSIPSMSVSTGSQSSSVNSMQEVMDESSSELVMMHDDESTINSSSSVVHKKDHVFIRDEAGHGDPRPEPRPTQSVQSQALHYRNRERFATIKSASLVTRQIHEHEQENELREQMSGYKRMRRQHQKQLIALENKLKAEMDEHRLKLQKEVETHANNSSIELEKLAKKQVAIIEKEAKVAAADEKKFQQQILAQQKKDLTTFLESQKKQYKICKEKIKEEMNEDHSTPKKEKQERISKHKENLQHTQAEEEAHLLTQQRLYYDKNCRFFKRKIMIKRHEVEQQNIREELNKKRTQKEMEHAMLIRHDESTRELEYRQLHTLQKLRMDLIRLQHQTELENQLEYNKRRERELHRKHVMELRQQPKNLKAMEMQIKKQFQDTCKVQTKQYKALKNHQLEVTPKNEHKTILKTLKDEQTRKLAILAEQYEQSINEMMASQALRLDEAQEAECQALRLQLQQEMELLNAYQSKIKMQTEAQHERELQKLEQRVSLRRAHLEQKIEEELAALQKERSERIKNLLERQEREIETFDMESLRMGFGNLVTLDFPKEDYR
UniProt P08247, whole entry, looked up: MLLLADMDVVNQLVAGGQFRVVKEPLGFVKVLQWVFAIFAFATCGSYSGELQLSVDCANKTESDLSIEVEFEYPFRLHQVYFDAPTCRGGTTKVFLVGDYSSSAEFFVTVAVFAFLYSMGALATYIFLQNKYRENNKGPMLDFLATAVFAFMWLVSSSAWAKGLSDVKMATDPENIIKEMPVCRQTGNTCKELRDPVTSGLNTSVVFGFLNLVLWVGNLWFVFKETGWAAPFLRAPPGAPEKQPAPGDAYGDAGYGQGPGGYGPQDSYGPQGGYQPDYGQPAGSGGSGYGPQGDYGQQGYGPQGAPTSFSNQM
UniProt Q12962, whole entry, looked up: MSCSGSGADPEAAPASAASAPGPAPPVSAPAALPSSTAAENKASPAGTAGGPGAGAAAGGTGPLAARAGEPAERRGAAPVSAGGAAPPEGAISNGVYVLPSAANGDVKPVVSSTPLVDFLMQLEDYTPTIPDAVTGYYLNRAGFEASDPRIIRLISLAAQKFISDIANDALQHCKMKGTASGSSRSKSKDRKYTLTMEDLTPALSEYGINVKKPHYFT
UniProt Q13033: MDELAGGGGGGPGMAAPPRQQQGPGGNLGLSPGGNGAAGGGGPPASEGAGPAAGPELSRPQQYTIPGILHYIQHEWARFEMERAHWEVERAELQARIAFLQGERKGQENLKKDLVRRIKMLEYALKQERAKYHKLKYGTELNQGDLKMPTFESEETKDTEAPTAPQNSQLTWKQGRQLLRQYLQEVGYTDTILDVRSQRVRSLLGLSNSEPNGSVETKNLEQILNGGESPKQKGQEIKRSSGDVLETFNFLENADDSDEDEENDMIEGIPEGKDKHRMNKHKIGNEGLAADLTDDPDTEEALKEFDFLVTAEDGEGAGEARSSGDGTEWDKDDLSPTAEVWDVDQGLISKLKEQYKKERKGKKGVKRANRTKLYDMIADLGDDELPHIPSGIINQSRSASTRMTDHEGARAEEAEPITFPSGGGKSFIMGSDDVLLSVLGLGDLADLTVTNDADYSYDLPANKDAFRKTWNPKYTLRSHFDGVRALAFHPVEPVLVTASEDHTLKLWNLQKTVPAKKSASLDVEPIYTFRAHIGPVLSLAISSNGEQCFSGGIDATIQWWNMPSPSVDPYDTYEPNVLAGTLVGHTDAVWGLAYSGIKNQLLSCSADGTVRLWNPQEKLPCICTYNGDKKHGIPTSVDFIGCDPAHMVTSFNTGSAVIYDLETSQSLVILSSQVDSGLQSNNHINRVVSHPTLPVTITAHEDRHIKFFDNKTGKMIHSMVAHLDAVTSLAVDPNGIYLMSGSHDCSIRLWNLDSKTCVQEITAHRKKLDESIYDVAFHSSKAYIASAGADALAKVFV
UniProt Q15750: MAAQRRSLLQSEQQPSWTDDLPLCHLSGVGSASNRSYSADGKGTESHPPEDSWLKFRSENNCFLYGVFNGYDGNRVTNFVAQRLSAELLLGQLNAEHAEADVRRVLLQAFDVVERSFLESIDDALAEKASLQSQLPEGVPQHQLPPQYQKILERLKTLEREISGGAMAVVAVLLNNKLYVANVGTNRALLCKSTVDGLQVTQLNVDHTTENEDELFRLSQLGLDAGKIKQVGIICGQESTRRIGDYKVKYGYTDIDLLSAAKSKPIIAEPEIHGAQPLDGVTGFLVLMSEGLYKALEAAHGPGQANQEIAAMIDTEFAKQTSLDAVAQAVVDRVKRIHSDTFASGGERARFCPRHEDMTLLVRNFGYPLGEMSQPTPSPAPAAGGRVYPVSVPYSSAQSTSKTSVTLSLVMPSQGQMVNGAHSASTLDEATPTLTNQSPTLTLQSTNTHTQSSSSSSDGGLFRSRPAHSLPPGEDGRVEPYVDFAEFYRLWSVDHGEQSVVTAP
UniProt Q9H7L9: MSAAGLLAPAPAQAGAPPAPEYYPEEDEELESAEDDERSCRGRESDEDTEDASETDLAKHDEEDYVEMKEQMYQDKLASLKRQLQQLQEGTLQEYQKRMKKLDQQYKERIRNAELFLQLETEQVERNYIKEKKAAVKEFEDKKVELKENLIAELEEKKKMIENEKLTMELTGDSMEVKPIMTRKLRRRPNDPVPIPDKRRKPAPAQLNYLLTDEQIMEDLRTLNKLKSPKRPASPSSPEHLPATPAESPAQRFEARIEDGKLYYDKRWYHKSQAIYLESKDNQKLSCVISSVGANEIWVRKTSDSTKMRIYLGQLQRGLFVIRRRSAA
UniProt Q6NXT6: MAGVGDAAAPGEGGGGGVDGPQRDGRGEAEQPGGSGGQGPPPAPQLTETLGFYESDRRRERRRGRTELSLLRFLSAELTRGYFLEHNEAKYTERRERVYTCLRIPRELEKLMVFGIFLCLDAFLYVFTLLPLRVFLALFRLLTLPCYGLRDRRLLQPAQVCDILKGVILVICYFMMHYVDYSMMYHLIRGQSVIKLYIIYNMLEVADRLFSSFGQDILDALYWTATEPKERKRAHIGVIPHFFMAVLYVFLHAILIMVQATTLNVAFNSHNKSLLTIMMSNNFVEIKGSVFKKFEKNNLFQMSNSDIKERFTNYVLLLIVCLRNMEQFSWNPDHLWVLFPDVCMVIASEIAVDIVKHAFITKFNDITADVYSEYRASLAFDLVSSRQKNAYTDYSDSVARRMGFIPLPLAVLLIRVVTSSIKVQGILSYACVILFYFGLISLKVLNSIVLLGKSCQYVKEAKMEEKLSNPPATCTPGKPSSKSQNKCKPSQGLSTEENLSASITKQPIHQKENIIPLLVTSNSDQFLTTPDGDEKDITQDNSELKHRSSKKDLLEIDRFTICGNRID
UniProt Q9Y2H1: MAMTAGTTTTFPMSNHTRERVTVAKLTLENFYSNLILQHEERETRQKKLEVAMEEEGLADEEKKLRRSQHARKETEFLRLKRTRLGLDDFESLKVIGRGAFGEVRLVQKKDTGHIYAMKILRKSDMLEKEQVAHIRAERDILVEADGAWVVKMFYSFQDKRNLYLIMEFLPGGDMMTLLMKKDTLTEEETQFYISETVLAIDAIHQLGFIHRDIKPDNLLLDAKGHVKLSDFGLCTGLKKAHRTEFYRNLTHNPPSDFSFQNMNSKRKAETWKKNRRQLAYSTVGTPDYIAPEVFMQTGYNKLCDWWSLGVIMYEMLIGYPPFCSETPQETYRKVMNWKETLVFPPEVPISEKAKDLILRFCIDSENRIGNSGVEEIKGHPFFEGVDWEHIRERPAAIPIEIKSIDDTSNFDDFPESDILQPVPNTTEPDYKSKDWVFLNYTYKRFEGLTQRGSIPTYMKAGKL
UniProt Q16594, whole entry, looked up: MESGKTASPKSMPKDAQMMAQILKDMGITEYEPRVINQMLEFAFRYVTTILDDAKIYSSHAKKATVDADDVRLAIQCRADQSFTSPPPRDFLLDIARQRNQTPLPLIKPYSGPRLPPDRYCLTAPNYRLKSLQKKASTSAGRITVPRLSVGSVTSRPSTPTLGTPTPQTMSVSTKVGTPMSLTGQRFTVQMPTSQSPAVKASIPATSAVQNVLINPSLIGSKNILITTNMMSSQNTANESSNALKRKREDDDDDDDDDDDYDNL
UniProt O00186: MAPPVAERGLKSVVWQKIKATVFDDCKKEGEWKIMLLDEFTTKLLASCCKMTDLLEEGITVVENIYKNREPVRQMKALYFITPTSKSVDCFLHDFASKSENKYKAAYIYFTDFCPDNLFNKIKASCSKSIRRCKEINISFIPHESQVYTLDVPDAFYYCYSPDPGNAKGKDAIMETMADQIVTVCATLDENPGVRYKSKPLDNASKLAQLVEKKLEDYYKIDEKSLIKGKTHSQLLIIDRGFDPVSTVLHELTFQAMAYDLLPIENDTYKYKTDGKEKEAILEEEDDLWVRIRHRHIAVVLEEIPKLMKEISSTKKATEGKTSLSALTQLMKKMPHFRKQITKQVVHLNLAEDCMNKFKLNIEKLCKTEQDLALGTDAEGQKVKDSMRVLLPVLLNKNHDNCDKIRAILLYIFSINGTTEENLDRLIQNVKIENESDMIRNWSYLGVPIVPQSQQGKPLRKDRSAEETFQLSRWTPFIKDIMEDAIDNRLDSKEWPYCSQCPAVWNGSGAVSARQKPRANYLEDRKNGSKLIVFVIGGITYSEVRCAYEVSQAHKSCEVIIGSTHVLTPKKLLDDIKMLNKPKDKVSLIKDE
UniProt Q9P2W9: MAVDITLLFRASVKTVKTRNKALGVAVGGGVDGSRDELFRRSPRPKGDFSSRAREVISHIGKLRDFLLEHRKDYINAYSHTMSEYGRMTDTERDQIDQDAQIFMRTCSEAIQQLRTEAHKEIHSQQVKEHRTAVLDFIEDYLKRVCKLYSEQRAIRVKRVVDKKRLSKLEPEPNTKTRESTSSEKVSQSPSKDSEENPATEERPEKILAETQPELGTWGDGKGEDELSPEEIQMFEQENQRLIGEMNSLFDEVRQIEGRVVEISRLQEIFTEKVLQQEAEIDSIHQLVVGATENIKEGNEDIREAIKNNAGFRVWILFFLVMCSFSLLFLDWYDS

Experiments:
Test in all cases: log2 fold change, soluble protein after heating vs DMSO (PISA); higher = thermal stabilisation; K562 cells, 10 uM, 30 min; active = over 0.2 and 3.5 SD of the protein, either way, in both replicates (recomputed)
erlotinib = compound: C#Cc1cccc(Nc2ncnc3cc(OCCOC)c(OCCOC)cc23)c1 [erlotinib]
Summary of the method: (§1)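 Thermal stability values are relative to control samples and come from duplicates. They are expressed as log2 fold changes. For measurement, K562 cells (2×10^6 cells/mL) received 10 μM compound for 30 min, and aliquots were heated for 3 min over 48°C-58°C, pooled, and extracted at 4°C in PBS with 0.5% NP-40. Soluble protein, the supernatant after 21,000xg for 90 min, was quantified by TMTpro 16plex LC-MS/MS with equalised channel sums.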

[1] = compound: C/C(=N\NC(=O)C1=CC(=CC=C1)S(=O)(=O)N2CCOCC2)/C3=C(C=CC(=C3)Cl)O
Summary of the method: as §1

[2] = compound: C1=CC(=C(C=C1Cl)C2=NC3=NC=CN=C3C(=N2)NC4=CC=NC=C4)F
Summary of the method: as §1

[3] = compound: C1=CC(=CC=C1C2=NC3=C(N2)C=C(C=C3)C(=O)N)OC4=CC=C(C=C4)Cl
Summary of the method: as §1

[4] = compound: C1=CC2=C(C=CC(=C2)/C=C\3/C(=O)NC(=NCC4=CC=CS4)S3)N=C1
Summary of the method: as §1

[5] = compound: C1=CC2=NC=CN=C2C=C1/C=C/3\C(=O)NC(=O)S3
Summary of the method: as §1

[6] = compound: C1=CC=C(C=C1)C2=NC(=C(N2)C3=CC=NC=C3)C4=CC(=C(C=C4)Cl)O
Summary of the method: as §1

[7] = compound: C1=CC=C2C(=C1)C3=NNC4=CC=CC(=C43)C2=O
Summary of the method: as §1

[8] = compound: C1CCN(C1)C(=O)NC2=CC=CC(=C2)NC3=NC=C(C(=N3)NCCC4=CN=CN4)Br
Summary of the method: as §1

[9] = compound: C1CN(CCC1(CC2=CC=C(C=C2)Cl)N)C3=NC=NC4=C3C=CN4
Summary of the method: as §1

| Target | log2 fold change (erlotinib) | log2 fold change [1] | log2 fold change [2] | log2 fold change [3] | log2 fold change [4] | log2 fold change [5] | log2 fold change [6] | log2 fold change [7] | log2 fold change [8] | log2 fold change [9] |
| --- | --- | --- | --- | --- | --- | --- | --- | --- | --- | --- |
| SUGT1 (UniProt Q9Y2Z0) | inactive: -0.008 | inactive: 0.005 | inactive: 0.055 | inactive: -0.01 | inactive: -0.06 | inactive: 0.037 | inactive: 0.049 | inactive: 0.009 | inactive: 0.006 | inactive: -0.024 |
| STRN4 isoform 3 (UniProt Q9NRL3) | inactive: 0.022 | inactive: 0.068 | inactive: 0.018 | inactive: -0.024 | inactive: 0 | inactive: -0.011 | inactive: 0.024 | inactive: 0.043 | inactive: -0.02 | inactive: 0.038 |
| STXBP1 (UniProt P61764) | inactive: 0.03 | inactive: 0.153 | inactive: 0.166 | inactive: -0.046 | inactive: 0.032 | inactive: -0.059 | inactive: 0.094 | inactive: -0.001 | inactive: -0.155 | inactive: -0.039 |
| STRAP isoform 2 (UniProt Q9Y3F4) | inactive: 0.011 | inactive: 0.007 | inactive: -0.019 | inactive: -0.002 | inactive: 0.032 | inactive: 0.006 | inactive: -0.017 | inactive: -0.005 | inactive: 0.011 | inactive: 0.006 |
| SUCLG2 (UniProt Q96I99) | inactive: 0.032 | inactive: 0.048 | inactive: 0.087 | inactive: 0.011 | inactive: 0.045 | inactive: -0.025 | inactive: 0.052 | inactive: 0.014 | inactive: -0.003 | inactive: 0.026 |
| TAOK3 (UniProt Q9H2K8) | inactive: -0.017 | inactive: 0.08 | inactive: 0.009 | inactive: 0.037 | inactive: 0.02 | inactive: 0.018 | inactive: 0.018 | inactive: -0.007 | inactive: -0.044 | inactive: 0.007 |
| STRN (UniProt O43815) | inactive: -0.03 | inactive: 0 | inactive: 0.033 | inactive: 0.013 | inactive: -0.008 | inactive: 0.005 | active: 0.213 | inactive: 0.025 | inactive: -0.124 | inactive: 0.053 |
| SYP (UniProt P08247) | inactive: -0.032 | inactive: -0.111 | inactive: -0.02 | inactive: 0 | inactive: 0.051 | inactive: 0.03 | inactive: -0.07 | inactive: -0.02 | inactive: 0.063 | inactive: 0.039 |
| TAF10 (UniProt Q12962) | inactive: -0.012 | inactive: -0.046 | inactive: 0.111 | inactive: 0.077 | inactive: 0.064 | inactive: 0.026 | inactive: 0.003 | inactive: -0.072 | inactive: -0.06 | inactive: 0.037 |
| STX6 (UniProt O43752) | inactive: 0.05 | inactive: 0.03 | inactive: -0.021 | inactive: -0.006 | inactive: -0.01 | inactive: 0.044 | inactive: 0.022 | inactive: 0.009 | inactive: -0.013 | inactive: 0.031 |
| SURF4 (UniProt O15260) | inactive: 0.017 | inactive: -0.013 | inactive: 0.033 | inactive: 0.031 | inactive: -0.014 | inactive: 0.061 | inactive: -0.023 | inactive: -0.009 | inactive: -0.044 | inactive: 0.047 |
| STRN3 (UniProt Q13033) | inactive: -0.059 | inactive: -0.011 | inactive: 0.027 | inactive: 0.019 | inactive: 0.02 | inactive: -0.017 | inactive: -0.05 | inactive: -0.039 | inactive: -0.016 | inactive: 0.008 |
| STX3 (UniProt Q13277) | inactive: 0.025 | inactive: -0.022 | inactive: 0.011 | inactive: 0.007 | inactive: 0.001 | inactive: 0.04 | inactive: 0.047 | inactive: -0.015 | inactive: -0.052 | inactive: 0.025 |
| TARS1 (UniProt P26639) | inactive: 0.018 | inactive: 0.074 | inactive: 0.044 | inactive: 0.019 | inactive: 0.033 | inactive: -0.005 | inactive: 0.028 | inactive: 0.027 | inactive: 0.011 | inactive: -0.016 |
| SULT1A1 (UniProt P50225) | inactive: -0.003 | inactive: 0.009 | inactive: 0.109 | inactive: 0.381 | active: 0.375 | inactive: 0.031 | inactive: 0.008 | active: 0.396 | inactive: -0.111 | inactive: 0.012 |
| SYNRG (UniProt Q9UMZ2) | inactive: -0.012 | inactive: 0.023 | inactive: -0.014 | inactive: 0.004 | inactive: -0.044 | inactive: 0.037 | inactive: 0.029 | inactive: -0.042 | inactive: 0.053 | inactive: -0.005 |
| SYNGR2 (UniProt O43760) | inactive: -0.001 | inactive: 0.015 | inactive: 0.033 | inactive: 0.003 | inactive: 0.124 | inactive: 0.089 | inactive: 0.039 | inactive: -0.095 | inactive: -0.012 | inactive: 0.098 |
| SURF2 (UniProt Q15527) | inactive: 0.021 | inactive: -0.067 | inactive: 0.039 | inactive: -0.03 | inactive: -0.068 | inactive: 0.113 | inactive: -0.057 | inactive: 0.027 | inactive: -0.043 | inactive: 0.009 |
| TAB1 (UniProt Q15750) | inactive: 0.039 | inactive: 0.059 | inactive: 0.06 | inactive: -0.047 | inactive: 0.068 | inactive: 0 | inactive: -0.069 | inactive: 0.028 | inactive: -0.027 | inactive: -0.176 |
| STX8 (UniProt Q9UNK0) | inactive: 0.003 | inactive: -0.013 | inactive: 0.012 | inactive: 0.056 | inactive: -0.014 | inactive: 0.035 | inactive: 0.001 | inactive: -0.061 | inactive: 0.009 | inactive: -0.026 |
| STT3A (UniProt P46977) | inactive: -0.024 | inactive: 0.008 | inactive: 0.007 | inactive: -0.033 | inactive: -0.015 | inactive: 0.039 | inactive: 0.031 | inactive: -0.01 | inactive: 0.019 | inactive: 0.003 |
| SUDS3 (UniProt Q9H7L9) | inactive: 0.044 | inactive: 0.125 | inactive: -0.008 | inactive: -0.069 | inactive: -0.04 | inactive: -0.057 | inactive: -0.045 | inactive: 0.098 | inactive: 0.037 | inactive: -0.001 |
| TAPT1 (UniProt Q6NXT6) | inactive: 0.029 | inactive: -0.022 | inactive: 0.05 | inactive: 0.024 | inactive: 0.057 | inactive: -0.004 | inactive: -0.041 | inactive: -0.041 | inactive: -0.005 | inactive: 0.003 |
| TATDN1 (UniProt Q6P1N9) | inactive: -0.062 | inactive: -0.089 | inactive: -0.059 | inactive: 0.02 | inactive: -0.013 | inactive: 0.047 | inactive: -0.016 | inactive: 0.013 | inactive: 0.073 | inactive: 0.076 |
| STK38L (UniProt Q9Y2H1) | inactive: -0.005 | inactive: 0.018 | inactive: 0.05 | inactive: 0.031 | inactive: -0.015 | inactive: 0.046 | inactive: -0.368 | inactive: 0.102 | inactive: 0.008 | inactive: -0.041 |
| SUPT16H (UniProt Q9Y5B9) | inactive: 0.177 | inactive: 0.25 | inactive: 0.091 | inactive: -0.012 | inactive: 0.155 | inactive: 0 | inactive: 0.064 | inactive: 0.098 | inactive: -0.098 | inactive: -0.011 |
| TAF9 (UniProt Q16594) | inactive: -0.007 | inactive: -0.003 | inactive: -0.036 | inactive: 0.014 | inactive: -0.027 | inactive: 0.019 | inactive: -0.04 | inactive: -0.032 | inactive: -0.024 | inactive: 0.02 |
| STXBP3 (UniProt O00186) | inactive: 0.078 | inactive: 0.069 | inactive: -0.044 | inactive: -0.049 | inactive: 0.018 | inactive: 0.021 | inactive: 0.015 | inactive: 0.01 | inactive: -0.027 | inactive: -0.058 |
| TACC3 (UniProt Q9Y6A5) | inactive: -0.003 | inactive: 0.023 | inactive: 0.017 | inactive: 0.003 | inactive: 0.05 | inactive: 0.044 | inactive: -0.022 | inactive: -0.03 | inactive: 0.007 | inactive: -0.012 |
| STX18 (UniProt Q9P2W9) | inactive: -0.009 | inactive: 0.073 | inactive: -0.03 | inactive: 0.02 | inactive: 0.031 | inactive: -0.01 | inactive: -0.023 | inactive: 0.019 | inactive: -0.017 | inactive: 0.035 |

Some values from above:
Value of SUGT1 (UniProt Q9Y2Z0) under log2 fold change [2]: inactive: 0.055
Value of SURF4 (UniProt O15260) under log2 fold change [5]: inactive: 0.061

Full records from above. Values in the order: log2 fold change (erlotinib)	log2 fold change [1]	log2 fold change [2]	log2 fold change [3]	log2 fold change [4]	log2 fold change [5]	log2 fold change [6]	log2 fold change [7]	log2 fold change [8]	log2 fold change [9]
SYNGR2 (UniProt O43760) as listed: inactive: -0.001	inactive: 0.015	inactive: 0.033	inactive: 0.003	inactive: 0.124	inactive: 0.089	inactive: 0.039	inactive: -0.095	inactive: -0.012	inactive: 0.098
TATDN1 (UniProt Q6P1N9) as listed: inactive: -0.062	inactive: -0.089	inactive: -0.059	inactive: 0.02	inactive: -0.013	inactive: 0.047	inactive: -0.016	inactive: 0.013	inactive: 0.073	inactive: 0.076
